Reference: paper PMC11332147

Tested on: UmuD (Escherichia coli)
Experiment: EMSA
Conditions: UmuD alone; EMSA: LI-COR Odyssey binding buffer (10x = 100 mM Tris, 500 mM KCl, 10 mM DTT, pH 7.5), 25 mM DTT, 1 ug/uL poly(dI-dC), 200 fmol probe per 20 uL; recombinant protein; label: 5' IRDye700 on both strands

TCGTCAACTTGAAAATGTAACTTTTTCAAGTTACATT (double strand) [WT 37 bp UmuDAb operator probe]
binding result: no binding

Construct, isoform or probe ends are uncertain for at least one entry. No signal at the amounts used counts as a negative.
